Reference: patent publication US9856225B2, “Substituted phenazines as antimicrobial agents” (University of Florida Research Foundation, Incorporated, priority 2013, dated 2018)
Where two headings read alike, the source gives them in different places. For some assays here: The name of at least one read-out is uncertain. Some of these results come from one statement about several compounds together. Some compounds share one range, which may span the group rather than tell each member.

Columns and labels:
Assay type in all cases: cell-based
[1] = system: Staphylococcus aureus (ATCC 25923); assay: MIC broth microdilution (CLSI), Luria Broth
Method: (§1) Antibiotic Susceptibility Tests (MIC Assay Protocol). The minimum inhibitory concentration (MIC) for each compound described herein was determined by the broth microdilution method as recommended by the Clinical and Laboratory Standards Institute (CLSI) (Clinical and Laboratory Standards Institute. 2009. Methods for dilution antimicrobial susceptibility tests for bacteria that grow aerobically; approved standard, eighth edition (M7-A8)). In a 96-well plate, eleven two-fold serial dilutions of each compound were made in a final volume of 100 μL Luria Broth (one column served as a blank; see the MIC assay described herein). Each well was inoculated with 10^5 bacterial cells at the initial time of incubation, prepared from a fresh log phase culture (OD600 of 0.5). […] The concentration range tested for each compound during this study was 0.10 to 100 μM. DMSO served as the vehicle and negative control in each microdilution MIC assay. DMSO was serially diluted at the same concentration as the compounds with a top concentration of 1% v/v. Bacterial strains used: Staphylococcus aureus (ATCC 25923), Staphylococcus epidermidis (ATCC 12228) and Pseudomonas aeruginosa (PAO1). Kanamycin was used as a positive control against Staphylococcus aureus and Staphylococcus epidermidis.

[2] = system: Pseudomonas aeruginosa (PAO1); assay: MIC broth microdilution (CLSI), Luria Broth
Method: as §1

[3] = system: Acinetobacter baumannii (ATCC 19606) pre-formed biofilm; assay: Biofilm dispersion, crystal violet; details: A. baumannii ATCC 19606
Method: Biofilm Dispersion Protocol for A. baumannii (ATCC 19606): To a 96-well plate was added a volume of 100 μL Mueller-Hinton broth that was inoculated with ˜7×10^6 colony forming units per milliliter (corresponding to an OD600 of 0.01 prepared directly from an overnight culture). Two columns of wells were left blank to serve as our background wells. A lid was placed on the 96-well plate which was wrapped in suran wrap, placed in a humidifying chamber and incubated under static conditions at room temperature for 24 hours to establish bacterial biofilms. […] The crystal violet stain that remained on the inside of the wells (i.e., stained bacterial biofilm) on the inside of the wells was solubilized by the addition of 200 μL ethanol and absorbance was read at OD540 using a spectrophotometer. […] Single data points for all compounds and DMSO controls were tested in two replicate rows in 96-well plates and corresponding absorbance readings were averaged for the quantification of remaining bacterial biofilms. Reported percent dispersion of biofilms was determined by the comparison of compound treated wells (the average of the two replicate wells) versus vehicle control wells without compound following background subtraction (i.e., an empty, untreated well) and reported from two independent experiments. […]

[4] = system: Staphylococcus epidermidis (ATCC 12228); assay: MIC broth microdilution (CLSI), Luria Broth
Method: as §1

SMILES	growth inhibition at the highest concentration tested ([2]; 100 μM, PAO1)	also measured
Nc1c(Br)cc(Br)c2nc3ccccc3nc12 [Compound 17, 2,4-Dibromophenazin-1-amine]		growth inhibition at the highest concentration tested [1]: inactive; growth inhibition at the highest concentration tested [2]: none of compounds 1-20 demonstrated growth inhibition
CC(=O)Oc1c(Br)cc(Br)c2nc3ccccc3nc12 [Compound 21, 2,4-Dibromophenazin-1-yl acetate]		% Biofilm Dispersion at 100 μM [3]: 53 ± 1%
Cn1c2cccc(=O)c-2nc2ccccc21 [Compound 1, Pyocyanin, reference compound]	none of compounds 1-20 demonstrated growth inhibition	
Oc1cccc2nc3ccccc3nc12 [Compound 2, 1-Hydroxyphenazine, reference compound]	none of compounds 1-20 demonstrated growth inhibition	
O=C(Oc1c(Br)cc(Br)c2nc3ccccc3nc12)c1ccccc1 [Compound 23, 2,4-Dibromophenazin-1-yl benzoate]		growth inhibition activity (in words) ([1]; Staphylococcus aureus): significant growth inhibition activities; growth inhibition activity (in words) [4]: significant growth inhibition activities
O=C(O)c1cccc2nc3ccccc3nc12 [Compound 3, Phenazine-1-carboxylic acid, reference compound]	none of compounds 1-20 demonstrated growth inhibition	
O=C(O)c1cccc2c1nc1ccccc1[n+]2[O-] [Compound 7, 1-Carboxyphenazine 5-oxide]	none of compounds 1-20 demonstrated growth inhibition	
Oc1c(Br)cc(Br)c2nc3ccccc3nc12 [Compound 11, 2,4-Dibromophenazin-1-ol]	none of compounds 1-20 demonstrated growth inhibition	% Biofilm Dispersion at 100 μM [3]: 56 ± 1%
NC(=O)c1cccc2nc3ccccc3nc12 [Compound 4, Phenazine-1-carboxamide, reference compound]	none of compounds 1-20 demonstrated growth inhibition	
Oc1c(Br)ccc2nc3ccccc3nc12 [Compound 5, 2-Bromophenazin-1-ol, reference compound]	none of compounds 1-20 demonstrated growth inhibition	
Nc1cccc2nc3ccccc3nc12 [Compound 6, Phenazin-1-amine]	none of compounds 1-20 demonstrated growth inhibition	
